Earlier results, collected in patent US7528175B2, “Method of treating airway diseases with beta-adrenergic inverse agonists” (Inverseon, Inc., priority 2005, dated 2009).

Conditions: cited from earlier work

CN1[C@@H]2CC[C@H]1C[C@@H](OC(=O)C(CO)c1ccccc1)C2 (some centres unmarked) [atropine]
systemic absorption (after inhalation): nearly complete

CC(C)[N+]1(C)[C@@H]2CC[C@H]1C[C@@H](OC(=O)C(CO)c1ccccc1)C2 (some centres unmarked) [Ipratropium bromide]
time of peak plasma concentrations (after oral intake): 3 h
